# At least one compound was matched to its structure with a doubt left.
# Assays:
# [1] = test system: PI3K/Akt/mTor signaling in blood cells; test: Kinase signaling in blood (phosflow); type: cell-based; settings: splenocytes or peripheral blood mononuclear cells; expected
# [2] = test system: breast cancer model; test: Preclinical breast cancer model (tumor weight / volume); type: in vivo; settings: combined treatment with Compound A and rapamycin (FIG. 4)
# [3] = test system: NRDG1 phosphorylation; test: Western blot of NRDG1 phosphorylation; type: cell-based; settings: western blot (FIG. 5B)
structure (smiles),measurement,setting,value
"CO[C@H]1C[C@@H]2CC[C@@H](C)[C@@](O)(O2)C(=O)C(=O)N2CCCC[C@H]2C(=O)O[C@H]([C@H](C)C[C@@H]2CC[C@@H](O)[C@H](OC)C2)CC(=O)[C@H](C)/C=C(\C)[C@@H](O)[C@@H](OC)C(=O)[C@H](C)C[C@H](C)/C=C/C=C/C=C/1C [rapamycin, reference compound]",anti-CD3 mediated phosphorylation of Akt-S473 and S6,[1],inhibits S6 phosphorylation and enhances Akt phosphorylation
same,reducing tumor volume of a preclinical breast cancer model,[2],synergistic effect
same,mTORC1-dependent NRDG1 phosphorylation,[3],not
